Laboratory results from patent US9205068B2 (priority 2008, dated 2015).
“Also recorded” adds a separate entry of the source. For at least one compound, name, drawing or mass did not settle the structure.

Assays:
[1] = test system: CT intoxication of HeLa cells; assay type: cell-based
[2] = test system: CTA1 dislocation from the ER to the cytosol of HeLa cells; assay type: cell-based
CT = conditions: in vivo
Shiga toxin = assay type: cell-based

Structure (SMILES): COC1=C2C[C@@H](C)C[C@H](OC)[C@H](O)[C@@H](C)/C=C(\C)[C@H](OC(N)=O)[C@@H](OC)/C=C\C=C(/C)C(=O)NC(=CC1=O)C2=O [GA, geldanamycin]
- protection from CT [1]: protected from CT
- cytosolic CTA1 by Western blot [2]: less cytosolic CTA1 than either untreated or NECA-treated cells
- cytosolic pool of CTA1 by SPR [2]: weak SPR signal that was much less than the signal obtained from the 0.1 ng/ml CTA standard
- fluid accumulation in ileal loop (CT): substantially less fluid accumulation; also recorded: minimal amount of fluid accumulation and intestinal distension
- protection against Shiga toxin (Shiga toxin): do not protect cultured cells against Shiga toxin
